# Data: US20250283871A1, “COMPOSITIONS AND METHODS FOR MODULATING THE INTERACTION BETWEEN SS18-SSX FUSION ONCOPROTEIN AND NUCLEOSOMES” (Dana-Farber Cancer Institute, Inc., priority 2020, published 2025)
# B1: SLC25A10 (protein, UniProt Q9UBX3 1-287, looked up)
# Mitochondrial dicarboxylate …: MAAEARVSRWYFGGLASCGAACCTHPLDLLKVHLQTQQEVKLRMTGMALRVVRTDGILALYSGLSASLCRQMTYSLTRFAIYETVRDRVAKGSQGPLPFHEKVLLGSVSGLAGGFVGTPADLVNVRMQNDVKLPQGQRRNYAHALDGLYRVAREEGLRRLFSGATMASSRGALVTVGQLSCYDQAKQLVLSTGYLSDNIFTHFVASFIAGGCATFLCQPLDVLKTRLMNSKGEYQGVFHCAVETAKLGPLAFYKGLVPAGIRLIPHTVLTFVFLEQLRKNFGIKVPS
# B2: IDH3G (protein, UniProt P51553 40-393, looked up)
# Isocitrate dehydrogenase …: FSEQTIPPSAKYGGRHTVTMIPGDGIGPELMLHVKSVFRHACVPVDFEEVHVSSNADEEDIRNAIMAIRRNRVALKGNIETNHNLPPSHKSRNNILRTSLDLYANVIHCKSLPGVVTRHKDIDILIVRENTEGEYSSLEHESVAGVVESLKIITKAKSLRIAEYAFKLAQESGRKKVTAVHKANIMKLGDGLFLQCCREVAARYPQITFENMIVDNTTMQLVSRPQQFDVMVMPNLYGNIVNNVCAGLVGGPGLVAGANYGHVYAVFETATRNTGKSIANKNIANPTATLLASCMMLDHLKLHSYATSIRKAVLASMDNENMHTPDIGGQGTTSEAIQDVIRHIRVINGRAVEA
# B3: SLC2A1 (protein, UniProt P11166 1-492, looked up)
# Solute carrier family 2, …: MEPSSKKLTGRLMLAVGGAVLGSLQFGYNTGVINAPQKVIEEFYNQTWVHRYGESILPTTLTTLWSLSVAIFSVGGMIGSFSVGLFVNRFGRRNSMLMMNLLAFVSAVLMGFSKLGKSFEMLILGRFIIGVYCGLTTGFVPMYVGEVSPTALRGALGTLHQLGIVVGILIAQVFGLDSIMGNKDLWPLLLSIIFIPALLQCIVLPFCPESPRFLLINRNEENRAKSVLKKLRGTADVTHDLQEMKEESRQMMREKKVTILELFRSPAYRQPILIAVVLQLSQQLSGINAVFYYSTSIFEKAGVQQPVYATIGSGIVNTAFTVVSLFVVERAGRRTLHLIGLAGMAGCAILMTIALALLEQLPWMSYLSIVAIFGFVAFFEVGPGPIPWFIVAELFSQGPRPAAIAVAGFSNWTSNFIVGMCFQYVEQLCGPYVFIIFTVLLVLFFIFTYFKVPETKGRTFDEIASGFRQGGASQSDKTPEELFHPLGADSQV
# B4: PARS2 (protein, UniProt Q7L3T8 30-475, looked up)
# Probable proline--tRNA …: HHCAPRRGRRLLLSRVFQPQNLREDRVLSLQDKSDDLTCKSQRLMLQVGLIYPASPGCYHLLPYTVRAMEKLVRVIDQEMQAIGGQKVNMPSLSPAELWQATNRWDLMGKELLRLRDRHGKEYCLGPTHEEAITALIASQKKLSYKQLPFLLYQVTRKFRDEPRPRFGLLRGREFYMKDMYTFDSSPEAAQQTYSLVCDAYCSLFNKLGLPFVKVQADVGTIGGTVSHEFQLPVDIGEDRLAICPRCSFSANMETLDLSQMNCPACQGPLTKTKGIEVGHTFYLGTKYSSIFNAQFTNVCGKPTLAEMGCYGLGVTRILAAAIEVLSTEDCVRWPSLLAPYQACLIPPKKGSKEQAASELIGQLYDHITEAVPQLHGEVLLDDRTHLTIGNRLKDANKFGYPFVIIAGKRALEDPAHFEVWCQNTGEVAFLTKDGVMDLLTPVQTV
# B5: HARS (protein, UniProt P12081 2-509, looked up)
# Histidine--tRNA ligase, …: AERAALEELVKLQGERVRGLKQQKASAELIEEEVAKLLKLKAQLGPDESKQKFVLKTPKGTRDYSPRQMAVREKVFDVIIRCFKRHGAEVIDTPVFELKETLMGKYGEDSKLIYDLKDQGGELLSLRYDLTVPFARYLAMNKLTNIKRYHIAKVYRRDNPAMTRGRYREFYQCDFDIAGNFDPMIPDAECLKIMCEILSSLQIGDFLVKVNDRRILDGMFAICGVSDSKFRTICSSVDKLDKVSWEEVKNEMVGEKGLAPEVADRIGDYVQQHGGVSLVEQLLQDPKLSQNKQALEGLGDLKLLFEYLTLFGIDDKISFDLSLARGLDYYTGVIYEAVLLQTPAQAGEEPLGVGSVAAGGRYDGLVGMFDPKGRKVPCVGLSIGVERIFSIVEQRLEALEEKIRTTETQVLVASAQKKLLEERLKLVSELWDAGIKAELLYKKNPKLLNQLQYCEEAGIPLVAIIGEQELKDGVIKLRSVTSREEVDVRREDLVEEIKRRTGQPLCIC
# B6: DARS2 (protein, UniProt Q6PI48 48-645, looked up)
# Aspartate--tRNA ligase, …: VVRTNTCGELRSSHLGQEVTLCGWIQYRRQNTFLVLRDFDGLVQVIIPQDESAASVKKILCEAPVESVVQVSGTVISRPAGQENPKMPTGEIEIKVKTAELLNACKKLPFEIKNFVKKTEALRLQYRYLDLRSFQMQYNLRLRSQMVMKMREYLCNLHGFVDIETPTLFKRTPGGAKEFLVPSREPGKFYSLPQSPQQFKQLLMVGGLDRYFQVARCYRDEGSRPDRQPEFTQIDIEMSFVDQTGIQSLIEGLLQYSWPNDKDPVVVPFPTMTFAEVLATYGTDKPDTRFGMKIIDISDVFRNTEIGFLQDALSKPHGTVKAICIPEGAKYLKRKDIESIRNFAADHFNQEILPVFLNANRNWNSPVANFIMESQRLELIRLMETQEEDVVLLTAGEHNKACSLLGKLRLECADLLETRGVVLRDPTLFSFLWVVDFPLFLPKEENPRELESAHHPFTAPHPSDIHLLYTEPKKARSQHYDLVLNGNEIGGGSIRIHNAELQRYILATLLKEDVKMLSHLLQALDYGAPPHGGIALGLDRLICLVTGSPSIRDVIAFPKSFRGHDLMSNTPDSVPPEELKPYHIRVSKPTDSKAERAH
# B7: CCDC157 (protein, UniProt Q569K6 1-752, looked up)
# Coiled-coil domain-containing …: MAHLLGSQACMESLRTDLTDLQGAIVDVFSRAGPVRFPSWKFPDRMACDLDMVALLEHYDHVPGDPEFTQLSHAVLLELVIDRLLLLLQSCMSYLENLGSEQMMPPAQAAGPCMSVGLTVRRFWDSLLRLGTLHQQPLPQKGANQRETPTSKPTTKGEPARSPEYLTTKLIKPSSPVLGLPQTCQEPESIPVRASLQFPATTFKNTRSVHSQTIETALVPCDACASVQGSLQKVGKVVISLCQSQNLPSSLGQFQQLVQDSMGLRPLPAATVGRWAAEQRKDLTRLSKHVEALRAQLEEAEGQKDGLRKQAGKLEQALKQEQGARRRQAEEDEQCLSEWEHDKQQLLTETSDLKTKMATLERELKQQRESTQAVEAKAQQLQEEGERRAAAERQVQQLEEQVQQLEAQVQLLVGRLEGAGQQVCWASTELDKEKARVDSMVRHQESLQAKQRALLKQLDSLDQEREELRGSLDEAEAQRARVEEQLQSEREQGQCQLRAQQELLQSLQREKQGLEQATTDLRLTILELERELEELKERERLLVAFPDLHRPTETQIHGGRSSSVESQITCPTDSGNVTDHMERQVQSNDIRIRVLQEENGRLQSMLSKIREVAQQGGLKLIPQDRLWSPSSKGTQGATPPVQAKSTSPGPLGRQHLPSSRTGRTLLGQPCTSPPRQPCTSPPRQPCTSPPRQPCTSPSRQPCSQPSKSLLEGVTHLDTCTQNPIKVLVRLRKRLSPGRGQASSAHQPQERPM
# Test system: BAF complex subunits and histone proteins
# Assay: Mass spectrometry proteomics of purified HA-SS18 WT and HA-SS18-SSX1 complexes (Tables 5A-5E)
# Set-up: species or system human
# Details: HA-SS18WT_NE_peptides: proteins co-purified with HA-SS18 WT from nuclear extract (NE), HEK-293T
Molecule,Total (peptides),Unique (peptides)
B1,2,2
B2,2,2
B3,2,2
B4,2,2
B5,2,2
B6,2,2
B7,2,1
